Assay results: PubChem BioAssay AID504847 (National Center for Advancing Translational Sciences (NCATS), 2011)
Where “and” joins values, the source holds several entries; their conditions need not be identical. Equal entries are not always repeated. Among all 400,000 compounds or so, about 3,700 (0.93%) were called active. The shares of active, inactive and inconclusive entries below differ from those in the screen. Calls follow the shape of the dose curve; as a rule, active = well fitted inhibition curve with a large enough effect; inconclusive = small, poorly fitted or top-dose-only effect, or another doubt; inactive = no such curve, though single readings can be large or run the other way. Where the call is inconclusive, the potency comes from a doubtful curve fit. Some structures have more than one record in an assay (separate samples or runs), and their calls can disagree.
% is scaled to controls: 0 for no effect and ±100 for the full control effect; potency is read from the fitted curve at half-maximal effect.

Chains of the proteins cited; added tags and fusions are not shown. Lines headed by an entry give the natural chain unless they say otherwise; changes in a name come on top.
UniProt P11473: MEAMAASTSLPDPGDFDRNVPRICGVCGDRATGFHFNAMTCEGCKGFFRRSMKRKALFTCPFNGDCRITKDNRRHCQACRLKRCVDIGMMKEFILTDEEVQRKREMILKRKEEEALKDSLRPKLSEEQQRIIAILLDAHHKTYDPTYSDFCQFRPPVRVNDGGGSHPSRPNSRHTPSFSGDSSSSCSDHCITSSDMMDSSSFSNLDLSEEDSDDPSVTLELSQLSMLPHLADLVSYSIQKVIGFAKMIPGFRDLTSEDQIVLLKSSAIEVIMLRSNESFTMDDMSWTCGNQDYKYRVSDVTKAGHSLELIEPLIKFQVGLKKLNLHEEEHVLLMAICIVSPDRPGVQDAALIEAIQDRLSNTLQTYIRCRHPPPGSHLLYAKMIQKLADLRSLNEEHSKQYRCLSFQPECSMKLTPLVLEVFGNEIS

What follows are compounds tested against Vitamin D3 receptor (Homo sapiens) (UniProt P11473) (assay: Inhibitors of the vitamin D receptor (VDR): qHTS). Conditions: VDR-SRC2-3 peptide fluorescence polarization, 2 h; max response, negative = inhibition: hits give low values.
Procedure, shortened: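 The screen uses fluorescence polarization to detect compounds that interfere with recruitment of the SRC2-3 coactivator peptide to VDR; plates are read after 2 h at room temperature.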
`COc1cc(/C=N/NC(=S)NCc2ccccc2)ccc1OCC#N` was tested, and the Potency was inconclusive: 44.7 µM [inhibitor, partial curve, poor fit]. `COc1cccc(NC(=S)N(CCCN2CCOCC2)C(C)c2cc3ccccc3o2)c1` (stereo unspecified) was tested, and the Potency was inconclusive: 100 µM [inhibitor, single point]. `O=[N+]([O-])c1ccc(Sc2cc[n+]([O-])c3ccccc23)c([N+](=O)[O-])c1` was tested, and the Potency was inconclusive: 100 µM [inhibitor, single point]. In the case of `CCc1nnc(NC(=O)c2ccc(S(C)(=O)=O)cc2)s1`, the Potency is reported as active: 20 µM. `C=C(C)Cn1c(SCC(=O)O)nnc1-c1ccc(OC)cc1` was tested, and the Potency was inconclusive: 31.6 µM [inhibitor, single point]. `CN(C)c1ncc2nc(-c3ccccc3)c(=O)n(C[C@H]3CCCO3)c2n1` was tested, and the Potency was inconclusive: 44.7 µM [inhibitor, partial curve]. In the case of `Cc1nn(-c2ccccc2)c(N)c1N=Nc1ccc(Cl)cc1`, the max response, negative = inhibition is reported as inactive: 4.76%. For `CCc1ccc(C(=O)/C=C/c2ccc([N+](=O)[O-])o2)cc1`, the Potency was active: 31.6 µM. With `CC(C)c1ccc(/C=C2\C(=O)N(CCN3CCOCC3)C(=S)N2C)cc1` the Potency was inconclusive: 56.2 µM [inhibitor, partial curve, poor fit]. For `O=C(Nc1cc(OC(=O)C(F)(F)F)c2nonc2c1OC(=O)C(F)(F)F)C(F)(F)F`, the Potency was inconclusive: 7.94 µM [inhibitor, partial curve, poor fit]. `Cc1cc(Nc2ccccc2)c2c([N+](=O)[O-])cc(C)c(C)c2n1` was tested, and the max response, negative = inhibition was inactive: -4.93%. With `C=CCSC1=C(C#N)C(c2ccc(OCC)cc2)CC(=O)N1` (stereo unspecified) the Potency was inconclusive: 89.1 µM [inhibitor, single point]. With `O=C(NCCc1csc(-c2ccccc2)n1)c1ccco1` the Potency was inconclusive: 14.1 µM [inhibitor, partial curve]. With `Cc1cc(NC(=O)CSc2nncn2-c2ccccc2)no1` the Potency was inconclusive: 100 µM [inhibitor, partial curve, poor fit]. `CCOP(=O)(OCC)c1nc(-c2ccc(Br)cc2)oc1N1CCCCC1` was tested, and the max response, negative = inhibition was inactive: -3.26%. `COc1ccccc1-c1nc(N(C)Cc2ccco2)c2ccccc2n1` was tested, and the Potency was inconclusive: 39.8 µM [inhibitor, partial curve]. For `COc1cc(C(=O)Nc2nc3ccc4nc(C)sc4c3s2)cc(OC)c1OC`, the max response, negative = inhibition was inactive: 4.2%. In the case of `Cc1c(Cl)cccc1Nc1ccccc1C(=O)O`, the Potency is reported as active: 44.7 µM. For `N#CC1=C(N)C(C#N)(C#N)C(c2cccnc2)C2CC(c3ccccc3)CC=C12` (stereo unspecified), the Potency was active: 25.1 µM. In the case of `COc1ccc(OC)c(CNc2ncnc3onc(C)c23)c1`, the max response, negative = inhibition is reported as inactive: 5.55%. In the case of `O=C(NCCC1=CCCCC1)C1CCCN(S(=O)(=O)c2cnc[nH]2)C1` (stereo unspecified), the max response, negative = inhibition is reported as inactive: -13.4%. In the case of `COc1ccc(C(=O)Nc2nc(-c3ccccn3)cs2)cc1S(=O)(=O)N1CCOCC1`, the Potency is reported as inconclusive: 79.4 µM [inhibitor, single point]. `COc1ccccc1-c1ccc(SCc2ccccc2F)nn1` was tested, and the Potency was inconclusive: 89.1 µM [inhibitor, single point]. `CC1=NN(c2ccc(Br)cc2)C(=O)/C1=C/c1ccc(-c2ccccc2C(=O)O)o1` was tested, and the Potency was inconclusive: 11.2 µM [inhibitor, full curve, poor fit]. With `CC(C)NC(=O)CSc1c2c(nc3ccccc13)CCCC2` the Potency was inconclusive: 31.6 µM [inhibitor, single point]. In the case of `CC1CCc2[nH]c3ccc(C(=O)N4CCCC(C(F)(F)F)C4)cc3c2C1` (stereo unspecified), the Potency is reported as inconclusive: 89.1 µM [inhibitor, single point]. `CC(C)Sc1nc2c(cnn2-c2ccc(Cl)cc2)c(=O)[nH]1` was tested, and the Potency was inconclusive: 44.7 µM [inhibitor, single point]. With `CCCCN(C)CCCNC(=O)c1cn(CC)c2ccc(S(=O)(=O)N3CCc4ccccc4C3)cc2c1=O` the max response, negative = inhibition was inactive: -9.38% and inactive: -1.18%. With `CN(CC(=O)Nc1ccc(F)cc1)C(=O)COC(=O)c1cc(Br)c(Br)s1` the max response, negative = inhibition was inactive: -5.98%. `COc1cccc(C=Nc2cc(C(C)C)c(O)cc2C)c1O` was tested, and the Potency was active: 50.1 µM. With `CCC/C(O)=C1\C(=O)CC(C)(C)CC1=Nc1ccccc1O` the Potency was active: 79.4 µM. In the case of `S=c1nccc(-c2cccs2)[nH]1`, the Potency is reported as inconclusive: 89.1 µM [inhibitor, single point]. For `c1ccc([C@H]2CNCCN2CCc2cccc3ccccc23)cc1`, the max response, negative = inhibition was inactive: 5.9%. With `CCOC(=O)CCNCc1ccc(OC)c(OC)c1` the Potency was inconclusive: 25.1 µM [inhibitor, single point]. For `Cc1cccc(NC(=S)N(CCCN2CCOCC2)Cc2ccccn2)c1`, the max response, negative = inhibition was inactive: -14.2%. In the case of `COCCNC(=O)C(Cc1c[nH]c2ccccc12)NC(=O)OCc1ccccc1` (stereo unspecified), the max response, negative = inhibition is reported as inactive: 4.58%. For `O=C1/C(=C\c2ccco2)NC(=S)N1c1ccccc1`, the max response, negative = inhibition was inactive: -8.52%. For `O=C(O)CNC(=O)CC1S/C(=N/N=C/c2ccccc2O)NC1=O` (stereo unspecified), the Potency was inconclusive: 22.4 µM [inhibitor, single point]. `COc1ccccc1N(CC(=O)Nc1ccccc1C(F)(F)F)S(=O)(=O)c1ccc(C)cc1` was tested, and the max response, negative = inhibition was inactive: -7.41%. For `COc1ccc(OC)c2nc(-c3cccnc3)ccc12`, the Potency was inconclusive: 79.4 µM [inhibitor, single point]. With `Cn1c(=O)c(=O)n(C)c2cc(S(=O)(=O)CCC(=O)N3CCOCC3)ccc21` the Potency was inconclusive: 63.1 µM [inhibitor, partial curve, poor fit]. For `CN(C)c1ncc(C2=C(Cl)C(=O)C(N3CCCC3)=C(Cl)C2=O)s1`, the Potency was active: 28.2 µM. `O=C(O)CSc1nnc(-c2ccccc2Br)n1-c1cccc(C(F)(F)F)c1` was tested, and the Potency was inconclusive: 50.1 µM [inhibitor, single point]. In the case of `CCCCC(CC)CNC(=O)CCCCCn1c(=O)[nH]c2ccsc2c1=O` (stereo unspecified), the max response, negative = inhibition is reported as inactive: -24.7%. With `O=c1c2c([N+](=O)[O-])cc([N+](=O)[O-])cc2sn1-c1ccc(Br)cc1` the Potency was active: 25.1 µM. `Cc1ccc(S(=O)(=O)N(C)C)cc1NC(=O)COC(=O)COc1ccc2c(C)cc(=O)oc2c1` was tested, and the Potency was inconclusive: 12.6 µM [inhibitor, partial curve].
